Chains of the proteins cited; added tags and fusions are not shown. Residues count along the entry.
UniProt P19821, 4-832 K505G/E507G: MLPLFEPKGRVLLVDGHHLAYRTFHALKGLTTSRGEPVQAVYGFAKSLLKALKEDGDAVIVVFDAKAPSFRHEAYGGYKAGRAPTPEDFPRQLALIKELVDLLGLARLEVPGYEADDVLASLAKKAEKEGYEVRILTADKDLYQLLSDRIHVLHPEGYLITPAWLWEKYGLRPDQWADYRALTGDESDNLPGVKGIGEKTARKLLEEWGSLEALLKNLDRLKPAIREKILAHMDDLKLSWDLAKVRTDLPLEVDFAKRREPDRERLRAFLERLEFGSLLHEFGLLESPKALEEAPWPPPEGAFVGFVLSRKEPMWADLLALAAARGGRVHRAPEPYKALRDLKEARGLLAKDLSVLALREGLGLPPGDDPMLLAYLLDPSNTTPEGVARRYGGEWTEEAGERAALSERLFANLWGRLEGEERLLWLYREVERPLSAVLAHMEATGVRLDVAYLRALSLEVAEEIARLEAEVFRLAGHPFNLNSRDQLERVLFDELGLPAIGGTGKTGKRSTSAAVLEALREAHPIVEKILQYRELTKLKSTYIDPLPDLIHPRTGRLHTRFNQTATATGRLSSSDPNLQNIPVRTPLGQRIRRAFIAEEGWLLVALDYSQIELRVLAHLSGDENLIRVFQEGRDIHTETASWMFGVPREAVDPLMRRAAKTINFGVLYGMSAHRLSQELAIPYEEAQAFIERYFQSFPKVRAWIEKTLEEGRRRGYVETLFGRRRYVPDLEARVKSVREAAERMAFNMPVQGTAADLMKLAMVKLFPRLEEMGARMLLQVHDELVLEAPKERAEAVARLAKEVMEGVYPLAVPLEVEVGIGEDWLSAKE
UniProt P19821, whole entry: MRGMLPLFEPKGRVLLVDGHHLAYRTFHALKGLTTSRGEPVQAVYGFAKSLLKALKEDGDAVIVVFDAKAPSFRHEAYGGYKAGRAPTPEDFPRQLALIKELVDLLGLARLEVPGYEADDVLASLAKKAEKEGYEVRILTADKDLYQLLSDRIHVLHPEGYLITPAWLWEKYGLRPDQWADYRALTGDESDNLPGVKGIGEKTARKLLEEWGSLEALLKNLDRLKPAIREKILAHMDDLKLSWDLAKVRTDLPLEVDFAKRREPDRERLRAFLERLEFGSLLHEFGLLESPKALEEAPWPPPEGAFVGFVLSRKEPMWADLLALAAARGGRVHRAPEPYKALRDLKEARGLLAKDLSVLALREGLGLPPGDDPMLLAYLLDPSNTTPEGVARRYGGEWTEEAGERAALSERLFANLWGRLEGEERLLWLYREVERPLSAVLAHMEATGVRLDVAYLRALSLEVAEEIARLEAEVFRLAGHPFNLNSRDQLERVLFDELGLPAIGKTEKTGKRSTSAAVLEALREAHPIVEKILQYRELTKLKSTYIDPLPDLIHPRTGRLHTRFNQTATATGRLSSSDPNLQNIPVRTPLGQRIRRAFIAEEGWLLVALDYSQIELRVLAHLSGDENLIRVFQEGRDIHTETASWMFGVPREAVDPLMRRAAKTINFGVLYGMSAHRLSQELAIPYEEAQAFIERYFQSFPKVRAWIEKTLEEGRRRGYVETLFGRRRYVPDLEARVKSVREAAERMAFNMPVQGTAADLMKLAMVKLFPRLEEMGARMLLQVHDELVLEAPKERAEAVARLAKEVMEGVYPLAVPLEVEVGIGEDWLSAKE

In US20240052325:

Legend:
[1] = biological target: Activated InPfu (Pfu after intein splicing at 80 C + partially spliced mixture) (Pyrococcus furiosus) (UniProt P61875); assay: activity assay; details: primer extension; pre-activated 80 C 5 min; Pfu buffer, 1.5 mM MgCl2; purified recombinant protein; folded or branched DNA
[2] = biological target: Activated InTaq (Taq after intein splicing, 80 C 5 min pre-activation + partially spliced mixture) (Thermus aquaticus) (UniProt P19821); assay: activity assay; details: primer extension; pre-activated 80 C 5 min; 30 C 1 h or 21 C 24 h; 1.5 mM MgCl2; purified recombinant protein; folded or branched DNA
[3] = tested on: InPfu (Pfu DNA polymerase with inserted PI-PfuI mini intein, unspliced) (Pyrococcus furiosus); assay: activity assay; details: primer extension; 30 C 1 h or 21 C 24 h; Pfu buffer pH 8.8, 1.5 mM MgCl2; purified recombinant protein; protein details: internal His6 in intein; folded or branched DNA
[4] = tested on: InTaq (Taq DNA polymerase with inserted PI-PfuI mini intein, unspliced) (Thermus aquaticus / Pyrococcus furiosus); assay: activity assay; details: primer extension; 30 C 1 h or 21 C 24 h; 1.5 mM MgCl2, 50 mM KCl, Tris pH 8.3; purified recombinant protein; protein details: internal His6 in intein; folded or branched DNA
[5] = biological target: Pfu DNA polymerase wild type (Pyrococcus furiosus) (UniProt P61875); assay: activity assay; details: primer extension; 30 C 1 h or 21 C 24 h; Pfu buffer, 1.5 mM MgCl2; purified recombinant protein; folded or branched DNA
[6] = biological target: Taq DNA polymerase wild type (Thermus aquaticus) (UniProt P19821); assay: activity assay; details: primer extension; 30 C 1 h or 21 C 24 h; 1.5 mM MgCl2; purified recombinant protein; folded or branched DNA
[7] = biological target: Activated InPfu (Pfu after intein splicing at 80 C + partially spliced mixture) (Pyrococcus furiosus) (UniProt P61875); assay: enzyme reaction in vitro; details: 3'-5' exonuclease; pre-activated 80 C 1 h; 50 C 1 h; 1.5 mM MgCl2; purified recombinant protein; folded or branched DNA
[8] = tested on: InPfu (Pfu DNA polymerase with inserted PI-PfuI mini intein, unspliced) (Pyrococcus furiosus); assay: enzyme reaction in vitro; details: 3'-5' exonuclease; 50 C 1 h; Pfu buffer, 1.5 mM MgCl2; purified recombinant protein; protein details: internal His6 in intein; folded or branched DNA
[9] = biological target: Pfu DNA polymerase wild type (Pyrococcus furiosus) (UniProt P61875); assay: enzyme reaction in vitro; details: 3'-5' exonuclease; 50 C 1 h; 1.5 mM MgCl2; purified recombinant protein; folded or branched DNA

Sequence	activity on this sequence [1]	activity on this sequence [2]	activity on this sequence [3]	activity on this sequence [4]	activity on this sequence [5]	activity on this sequence [6]	activity on this sequence [7]	activity on this sequence [8]	activity on this sequence [9]
CGAACGATGTGAACCTAATAACGTCTCTCGCGGCCGATCTGCCGGCCGCGAGAGACGT [elongation hairpin substrate]	active	active	not active	not active	active	active			
TGTTCTCCTCTTCCGCTGCTCCCGCGATCTGCCGCGGGAGCAGCGGAAGAGGAGAACA [exonuclease hairpin substrate]							active	not active	active

For part of these data: A negative result means that nothing was seen under these conditions.
